Among the data in article doi:10.1101/2022.02.10.479907 are binding values, retold here.

Results are given in words; binding and its absence hold for the method and conditions named.

Assay [1] concerns the target SaroL-1 from Salpingoeca rosetta (Salpingoeca rosetta) (UniProt F2UID9). Put plainly: crystal structure.
For assay [2] the target is unchanged. The experiment in a line: SEC-MALS. (In general: Size exclusion chromatography separates by hydrodynamic size, large species first.)

B1: SaroL-1 from Salpingoeca rosetta (protein, UniProt F2UID9 1-329)
chain: MSSTFEPATDSPLPVPGVQYFLQHVQSGKYVHPHGGSDMPGNDTALVLHHGFDEKRDALRWVFVNDAENKHQLKHYSSGKFVHPKGGKVGKEATLVVHSSPGRPETMIEMVQEDGRTYLRHTDSDYYVHPHGGSPNPGDNTRLVYYSGYRPSLAFLAIPAETLFVDRIEIHQAQALESINTITSLSDEHRNDTDQPVQTSISVALEESLQDSAQLSFERCFGLKVGSEFEVGLPLVGKTKVSVQFSGSWKSSTIKGEVRTSAVKVQINEHVTIPPGKCVQIRIDTRRCTKTAPATMYLRTASGIEVQRETTVTSTYHYDQEVHVVPVTN
As to B1, the binding entry in assay [1] and in assay [2] was “no binding” throughout.
